According to patent US11427783B2, “Perfuming compositions” (Firmenich SA, priority 2016, dated 2022):
Counter-ions that a name gives are not always drawn.

Assay: Odor threshold of perfuming compounds in air
[1] = Table 8, perfuming compounds having a sweet note
[2] = Table 9, perfuming compounds having a gourmand note
[3] = Table 5, perfuming compounds having a green note
[4] = perfuming compounds having a fruity note (Table 6)
[5] = Table 6, perfuming compounds having a fruity note
[6] = Table 10, perfuming compounds having a woody note

## C/C=C/C(=O)[C@@H]1[C@@H](C)C=CCC1(C)C (racemic)
[1]
  Odor Threshold (μg/l air): 1.70E−05 μg/l air
[2]
  Odor Threshold (μg/l air): 1.70E−05 μg/l air

## CCCC(C)C(=O)OCC (racemic) [(+−)-ETHYL 2-METHYLPENTANOATE]
[3]
  Odor Threshold: 3.84E−05 μg/l air
[4]
  Odor Threshold: 3.84E−05 μg/l air

## CC(C)CCOCCc1ccccc1 [3-METHYLBUTYL 2-PHENYLETHYL ETHER]
[5]
  Odor Threshold (μg/l air): 1.38E−02 μg/l air
[1]
  Odor Threshold (μg/l air): 1.38E−02 μg/l air
[2]
  Odor Threshold (μg/l air): 1.38E−02 μg/l air

## CCC(CC(C)CC)=NO (centres unmarked) [5-METHYL-3-HEPTANONE OXIME]
[3]
  Odor Threshold: 8.80E−03 μg/l air
[5]
  Odor Threshold (μg/l air): 8.80E−03 μg/l air
[1]
  Odor Threshold (μg/l air): 8.80E−03 μg/l air

## CC(=O)/C(C)=C(/C)C(C)C(C)(C)C (racemic)
[6]
  Odor Threshold (μg/l air): 7.24E−02 μg/l air

## CCCCC1CCC(=O)O1 (racemic) [(+−)-4-OCTANOLIDE]
[5]
  Odor Threshold (μg/l air): 2.32E−05 μg/l air
[2]
  Odor Threshold (μg/l air): 2.32E−05 μg/l air

## CCCC(C)COC(=O)C(C)CCC (centres unmarked) [2-METHYLPENTYL 2-METHYLPENTANOATE]
[3]
  Odor Threshold: 2.41E−01 μg/l air
[4]
  Odor Threshold: 2.41E−01 μg/l air

## CC1=CCC2C(C1)C1CC2C2(C1)OC2C (racemic)
[3]
  Odor Threshold: 9.93E−04 μg/l air
[5]
  Odor Threshold (μg/l air): 9.93E−04 μg/l air

## O=C(Cc1ccccc1)OCCc1ccccc1 [2-PHENYLETHYL PHENYLACETATE]
[5]
  Odor Threshold (μg/l air): 9.08E−04 μg/l air
[1]
  Odor Threshold (μg/l air): 9.08E−04 μg/l air
[2]
  Odor Threshold (μg/l air): 9.08E−04 μg/l air

## CC(=O)OC(C)c1ccccc1 (racemic) [(+−)-1-PHENYLETHYL ACETATE]
[4]
  Odor Threshold: 4.43E−02 μg/l air

## COc1ccc(OC)c(C(C)(C)C)c1 [2-TERT-BUTYL-1,4-DIMETHOXYBENZENE]
[6]
  Odor Threshold (μg/l air): 1.65E−02 μg/l air

## CC1=CCC(/C=C/C(C)C(C)O)C1(C)C (centres unmarked)
[6]
  Odor Threshold (μg/l air): 9.56E−05 μg/l air

## c1ccc(CCCc2ccccn2)cc1 [2-(3-PHENYLPROPYL)PYRIDINE]
[3]
  Odor Threshold: 1.29E−06 μg/l air

## O=COCCc1ccccc1 [2-PHENYLETHYL FORMATE]
[3]
  Odor Threshold: 8.34E−04 μg/l air
[4]
  Odor Threshold: 8.34E−04 μg/l air

## CCCCCCC(C)=O [2-OCTANONE]
[4]
  Odor Threshold: 5.37E−02 μg/l air

## C=C1CCCC(C)(C)C1C(=O)/C=C/C (racemic)
[1]
  Odor Threshold (μg/l air): 3.73E−03 μg/l air
[2]
  Odor Threshold (μg/l air): 3.73E−03 μg/l air
[4]
  Odor Threshold: 3.73E−03 μg/l air

## CCCCC1CCCC(=O)O1 (centres unmarked) [5-NONANOLIDE]
[5]
  Odor Threshold (μg/l air): 1.16E−05 μg/l air
[1]
  Odor Threshold (μg/l air): 1.16E−05 μg/l air
[2]
  Odor Threshold (μg/l air): 1.16E−05 μg/l air

## C=CCOC(=O)CCC1CCCCC1 [ALLYL 3-CYCLOHEXYLPROPANOATE]
[3]
  Odor Threshold: 7.96E−03 μg/l air
[5]
  Odor Threshold (μg/l air): 7.96E−03 μg/l air
[1]
  Odor Threshold (μg/l air): 7.96E−03 μg/l air
[2]
  Odor Threshold (μg/l air): 7.96E−03 μg/l air

## CCCCC(CC)C(=O)OC (racemic) [(+−)-methyl 2-ethylhexanoate]
[6]
  Odor Threshold (μg/l air): 1.74E−01 μg/l air
[4]
  Odor Threshold: 1.74E−01 μg/l air

## CC(=O)OC(C)(C)Cc1ccccc1 [1,1-DIMETHYL-2-PHENYLETHYL ACETATE]
[4]
  Odor Threshold: 5.16E−02 μg/l air

## CC(C)c1cccc(C(C)CC=O)c1 (racemic) [(+−)-3-(3-ISOPROPYL-1-PHENYL)BUTANAL]
[3]
  Odor Threshold: 7.71E−04 μg/l air

## CCCCCCCCCCO [1-DECANOL]
[3]
  Odor Threshold: 1.13E−02 μg/l air

## C=CCCC(=O)C1=CCCC(C)(C)C1 [1-(5,5-dimethyl-1-cyclohexen-1-yl)-4-penten-1-one]
[3]
  Odor Threshold: 1.64E−06 μg/l air
[5]
  Odor Threshold (μg/l air): 1.64E−06 μg/l air

## CCCC(O)CCC1C(C)CCC(C)C1(C)C (racemic)
[6]
  Odor Threshold (μg/l air): 4.05E−04 μg/l air

## C/C=C/c1ccc(OC(C)=O)c(OC)c1 [(E)-2-METHOXY-4-(1-PROPENYL)PHENYL ACETATE]
[5]
  Odor Threshold (μg/l air): 4.08E−07 μg/l air

## CCCCCC1CCCC1O (racemic) [(+−)-2-PENTYL-1-CYCLOPENTANOL]
[1]
  Odor Threshold (μg/l air): 5.43E−03 μg/l air
